For the experiment, the target named is T1, stimulator of interferon genes (STING), endogenous in mouse primary cardiomyocytes (mouse (endogenous in mouse primary cardiomyocytes)) (UniProt Q3TBT3).
T1 sequence: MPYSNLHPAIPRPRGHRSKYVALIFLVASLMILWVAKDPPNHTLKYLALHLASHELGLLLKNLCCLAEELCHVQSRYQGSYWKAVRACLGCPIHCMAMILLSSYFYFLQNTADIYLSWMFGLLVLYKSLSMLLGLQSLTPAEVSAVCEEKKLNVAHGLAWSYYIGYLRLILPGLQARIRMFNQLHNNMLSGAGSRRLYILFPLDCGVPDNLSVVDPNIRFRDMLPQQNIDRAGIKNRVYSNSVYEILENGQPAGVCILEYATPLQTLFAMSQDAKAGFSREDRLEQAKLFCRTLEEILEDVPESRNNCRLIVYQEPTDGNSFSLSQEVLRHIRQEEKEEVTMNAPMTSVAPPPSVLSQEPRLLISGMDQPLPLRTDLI
Briefly: affinity purification with mass spectrometry; tandem affinity purification with STING protein affinity antibodies from MPCs post-A/R; silver staining and LC-MS/MS.

Results are given in words; binding and its absence hold for the method and conditions named. In cells and extracts the contact can be indirect. A yes stands for co-enrichment or nearness to the bait. Other partners may have been found.

Consider “glutathione peroxidase 4 (GPX4), endogenous in mouse primary cardiomyocytes”, for which the binding result was “binds”.

For the origin of these results see PMC12022026.
